From PMC10368634

Chains of the proteins cited; added tags and fusions are not shown.
UniProt P09211: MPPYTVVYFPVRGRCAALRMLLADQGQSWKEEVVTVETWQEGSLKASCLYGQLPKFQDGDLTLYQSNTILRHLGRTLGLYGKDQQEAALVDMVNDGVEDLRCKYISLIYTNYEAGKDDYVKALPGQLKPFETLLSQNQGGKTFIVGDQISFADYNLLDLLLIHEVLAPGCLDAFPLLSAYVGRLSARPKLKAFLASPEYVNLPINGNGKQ

Target: GFP-fused full length GSTP1 (glutathione S-transferase pi) (human) (UniProt P09211)
Assay: affinity purification with mass spectrometry; GFP-GSTP1 immuno-enriched, the mixture analysed by mass spectrometry

How did the binding turn out when “G6PD (glucose-6-phosphate dehydrogenase), endogenous (from UniProt P11413 1-515) (enzyme)” was run?
The binding was “binds”.

These are yes or no findings as the source states them, for the method shown. In cells and extracts the contact can be indirect. A yes stands for co-enrichment or nearness to the bait. Other partners may have been found.
